The other results are listed elsewhere or left out. The main result of the screen is listed elsewhere. These columns were measured beside it and carry no call. Compounds called inactive in the main read-out are mostly missing here. The note in brackets gives the kind of curve behind each potency; many fits are weak.
Test: qHTS Assay for Lipid Storage Modulators in Drosophila S3 Cells;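 on cell number change: cells counted by Cell Tracker Red CMTPX staining in the red channel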
Conditions: BODIPY lipid droplet fluorescence, 18-24 h; for cell number change: measured here: cell count max response, cells fed with added oleic acid
Summary of the method: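 Drosophila S3 cells got compounds at several concentrations plus oleic acid (400 uM solution). Laser-scanning cytometry with 488 nm excitation read lipid droplets at 500-530 nm and cells at 575-640 nm. Percent activity was relative to 20 uM Triacsin C.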

[1] = measured here: cell number channel AC50, cells fed with added oleic acid
[2] = measured here: lipid fluorescence (Fed channel) AC50, cells fed with added oleic acid

Compound | cell number change | AC50 [1] | AC50 [2]
CC12CCC(=O)N1C(C(=O)Nc1nc(-c3cc(F)ccc3F)cs1)CS2 (stereo not given) | 59% | 18.4 µM [rising, single point] | 
O=c1[nH]c(O)c(/C=C2\C=Nc3ccc(Br)cc32)[nH]1 | -12.1% |  | 
CC1(C)CC(=O)N(c2cccc(C(F)(F)F)c2)C(=O)C1 | 2.62% |  | 5.8 µM [rising, single point]
Cc1[nH]n(-c2ccccc2)c(=O)c1CCOC(=O)c1ccc(C(F)(F)F)cc1 | -23.7% |  | 0.206 µM [falling, full curve, poor fit]
CCN1C2=C(C(=O)CCC2)C(c2ccc(O)c(Br)c2)C2=C1CCCC2=O | -31.8% | 0.0731 µM [falling, full curve, poor fit] | 
Cc1ccc2nc(SC(C)C(=O)NC3CCCc4ccccc43)[nH]c2c1 (stereo not given) | -12.7% |  | 18.4 µM [falling, single point]
CCn1nccc1C(=O)Nc1ccc(Cl)cn1 | -96.9% | 0.651 µM [falling, full curve] | 0.92 µM [falling, full curve, poor fit]
CC(=O)C1=NN(c2ccccc2)C(c2cccs2)N1c1ccc(N(C)C)cc1 (stereo not given) | -63.6% | 16.4 µM [falling, single point] | 20.6 µM [falling, partial curve]
Cn1nc(C(=O)OCC(=O)Nc2sccc2C(N)=O)c2ccccc2c1=O |  | 1.64 µM [rising, full curve, poor fit] | 1.84 µM [rising, partial curve]
CCOc1ccc(S(=O)(=O)N2CCC(C(=O)N3CCCCCC3)CC2)cc1C |  |  | 1.16 µM [rising, full curve]
O=C(Nc1cccc(NC(=O)c2cccnc2)c1)c1cccnc1 |  |  | 6.51 µM [rising, single point]
CCCn1c(CC)nc([N+](=O)[O-])c1Sc1ccc(C)cc1 | -15.6% |  | 0.164 µM [rising, full curve, poor fit]
COc1ccc(Cn2nnnc2C(C(C)C)N2CCN(c3ccccc3OC)CC2)cc1 (stereo not given) | 29% |  | 32.6 µM [falling, single point]
Cc1ccc(N(C(=O)CNC(=O)c2ccco2)C(C(=O)NC2CCCC2)c2cccnc2)c(C)c1 (stereo not given) | 6.41% |  | 0.116 µM [falling, full curve]
COc1cc(NC(=O)c2cnc(N)s2)cc(C(=O)Nc2cccc(C(F)(F)F)c2)c1 | -9% | 2.06 µM [rising, partial curve, poor fit] | 3.26 µM [rising, partial curve]
O=C(C1CCCN(S(=O)(=O)c2ccc(Br)s2)C1)N1CCN(c2ccccc2)CC1 (stereo not given) | -7.94% |  | 0.082 µM [falling, full curve, poor fit]
C/C(N)=C(/C#N)C(=O)COC(=O)[C@@H](NC(=O)c1ccccc1Cl)C(C)C | 41.6% |  | 16.4 µM [rising, single point]
CC(=O)N1CCN(S(=O)(=O)c2cccc(C(=O)NCCC3=CCCCC3)c2)CC1 | -25.7% |  | 0.92 µM [falling, full curve]
Cc1onc(-c2ccccc2Cl)c1C(=O)N1CCc2ccccc2C1 | 68.1% | 16.4 µM [rising, single point] | 

In the list so far, these contain two or more sulfur atoms.
Compound | cell number change | AC50 [1] | AC50 [2]
CC12CCC(=O)N1C(C(=O)Nc1nc(-c3cc(F)ccc3F)cs1)CS2 (stereo not given) | 59% | 18.4 µM [rising, single point] | 
O=C(C1CCCN(S(=O)(=O)c2ccc(Br)s2)C1)N1CCN(c2ccccc2)CC1 (stereo not given) | -7.94% |  | 0.082 µM [falling, full curve, poor fit]

Later entries

Compound | cell number change | AC50 [1] | AC50 [2]
Cc1c(C(=O)N2CCCCC2)sc(NC(=O)C(C)C)c1C#N | -30.7% | 0.00517 µM [falling, full curve, poor fit] | 
CCC(=O)Nc1cccc2cccnc12 | 0.551% | 7.31 µM [falling, partial curve, poor fit] | 
CC1CN(C(=O)CSc2nc(-c3ccc(F)cc3)cs2)CC(C)O1 (stereo not given) | -60% |  | 
C/C(=N\NC(=O)c1cc(C)oc1C)c1ccc2c(c1)OCO2 | -31.9% | 4.61 µM [falling, full curve, poor fit] | 0.231 µM [falling, full curve, poor fit]
COc1ccc(S(=O)(=O)N(CC(=O)N2CCCCCC2)c2ccccc2OC)cc1 | -9.21% |  | 3.55 µM [rising, single point]
Fc1cc(F)nc(NCc2ccccc2)n1 | 6.31% |  | 
CCOC(=O)c1c(Cc2ccc(Cl)cc2)c[nH]c1C | -30.6% | 29.1 µM [falling, single point] | 9.2 µM [falling, single point]
COc1ccc(N(CC(=O)Nc2ccc3c(c2)OCO3)S(=O)(=O)c2ccccc2)c(OC)c1 | -12.5% |  | 0.82 µM [rising, full curve, poor fit]
COc1ccc2nc(C)cc(SCC(=O)OC(C)C)c2c1 | -23.4% |  | 14.6 µM [falling, single point]
CC(C)(C)C(=O)Cn1c(=N)n(Cc2ccccc2)c2ccccc21 | -38.8% | 20.6 µM [falling, single point] | 20.6 µM [falling, single point]
Cc1nn(CC(=O)Nc2cc(S(=O)(=O)N3CCOCC3)ccc2Cl)c(C)c1[N+](=O)[O-] | -42.1% | 32.6 µM [falling, partial curve, poor fit] | 0.82 µM [falling, full curve]
Cc1cc(C(=O)Nc2nc3c(C)cccc3s2)c(C)o1 |  |  | 5.8 µM [rising, single point]
N#Cc1ccccc1NC(=O)C1SC(=Nc2ccccc2)C(C(=O)Nc2ccc(Cl)cc2)=C1N (stereo not given) | -35.3% | 23.1 µM [falling, partial curve] | 20.6 µM [falling, single point]
Cc1cccc(N=Nc2c(O)[nH]c3ccc(F)cc23)c1 | -18.2% |  | 29.1 µM [falling, partial curve]
COc1nc(Nc2ccc(O)cc2)nc(OC(C(F)(F)F)C(F)(F)F)n1 | -41.7% | 29.1 µM [falling, single point] | 
Cc1cccc(C(=O)NC(CC(=O)O)c2ccc(OC3CCCC3)cc2)c1[N+](=O)[O-] (stereo not given) | -2.23% |  | 0.00461 µM [falling, full curve, poor fit]
CC(=O)NCCc1nc2cc(NC(=O)c3ccccc3Cl)ccc2n1C | 27.5% |  | 25.9 µM [rising, single point]
Cc1c(NC(=O)CSc2nc3ccccc3s2)c(=O)n(-c2ccccc2)n1C | 66% | 2.91 µM [rising, full curve] | 2.91 µM [rising, full curve]
O=C(/C=C/c1ccccc1)CC(O)(c1ccccc1)C(F)(F)F (stereo not given) | -91% | 20.6 µM [falling, single point] | 

Compound | cell number change | AC50 [1] | AC50 [2]
CC(CC(=O)Nc1ccc(S(=O)(=O)N2CCOCC2)cc1)c1ccccc1 (stereo not given) |  |  | 2.59 µM [falling, partial curve]
O=C(C1=C[C@H](c2ccccc2)C[C@H](OCCCCO)O1)N1CCN(Cc2ccc3c(c2)OCO3)CC1 | -25.6% |  | 23.1 µM [falling, single point]
Clc1ccc(CSc2nnc3ccccn23)c(Cl)c1 | 10.5% |  | 11.6 µM [rising, single point]
COc1ccc(NC2CCCN(C(=O)c3cccs3)C2)cc1 (stereo not given) | -0.708% |  | 1.64 µM [falling, partial curve]
CC(=O)Nc1ccc(NC(=O)CCCSc2nc3ccccc3s2)cc1 | 153% | 18.4 µM [rising, single point] | 
CCN(CC)c1ccc(/C=C2\C(=O)N(c3nnc(C)c(=O)[nH]3)N=C2C)cc1 | -18% |  | 
O=C(COC(=O)CCc1nc2ccccc2c(=O)[nH]1)NC1CCS(=O)(=O)C1 (stereo not given) | -24.1% |  | 
Cc1cc(Cl)nc(-c2ccccc2)n1 | 11.6% |  | 32.6 µM [rising, single point]
Cc1cc(=O)oc2cc(OC(=O)CCCCCN3C(=O)c4ccccc4C3=O)ccc12 | 31.4% | 29.1 µM [rising, single point] | 29.1 µM [rising, partial curve, poor fit]
CCC1(c2ccccc2)NC(=O)N(CC(=O)NCc2ccc(OC)cc2)C1=O (stereo not given) | 11.7% |  | 0.13 µM [rising, full curve, poor fit]
C=C(C)CSC1=C(C#N)C(c2ccccc2Cl)CC(=O)N1 (stereo not given) | 41.6% | 0.00517 µM [rising, full curve, poor fit] | 
CCOc1cc(C2Nc3cccc4cccc(c34)N2)ccc1O | -3.34% | 0.116 µM [falling, full curve, poor fit] | 0.231 µM [falling, full curve]
CCOC(=O)c1sc(NC(=O)CSc2n[nH]c(CC)n2)nc1C | -47.5% | 29.1 µM [falling, single point] | 3.26 µM [falling, partial curve]
CC(Oc1ccc([N+](=O)[O-])cc1Cl)C(=O)Nc1ccc(C(N)=O)cc1 (stereo not given) | -25.2% | 0.103 µM [falling, full curve] | 
COc1ccc(-c2csc(NC(=O)CN3C(=O)NC4(CCCC4)C3=O)n2)cc1 |  | 1.64 µM [rising, partial curve, poor fit] | 
CN(C(=O)COC(=O)c1cccc(NS(=O)(=O)c2ccc(F)c(F)c2)c1)C1CCS(=O)(=O)C1 (stereo not given) |  |  | 0.58 µM [rising, single point]
COc1ccc(N=c2scc(-c3ccc(OC)cc3)n2CCO)cc1 | -32.1% | 16.4 µM [falling, single point] | 20.6 µM [falling, single point]
Cc1ccc(Nc2nc(N)nc(CN3CCc4ccccc4C3)n2)cc1 | 110% | 18.4 µM [rising, single point] | 10.3 µM [rising, partial curve]

— PubChem BioAssay AID2685 (National Center for Advancing Translational Sciences (NCATS), 2010)
